Data on one compound can be found in US10106542B2, “Substituted 6,7-dihydropyrazolo[1,5-a]pyrazines as negative allosteric modulators of mGluR2 receptors” (Janssen Pharmaceutica NV, priority 2013, dated 2018).

The test system of this series is Wiga rats. Briefly: Reserpine interaction test in rats. It is filed as in vivo, rat. On the procedure:
4) Reserpine Interaction Test in Rats
It was investigated to what extent the mydriatic action of test compounds was sufficient to counteract the miosis induced by the monoamines-depleting agent reserpine (10 mg/kg; SC) in Wiga rats.
The effects are illustrated in FIG. 3. […] The reference mGlu2 NAMs RO-4995819 (40 mg/kg, p.o.), RO-4491533 (40 mg/kg, p.o.; 10 mg/kg, s.c.) and [CAS 579473-69-1]

`Cc1cc(-c2cnn3c2C(=O)N(c2ccc(C(F)(F)F)cc2)C[C@@H]3C)ccn1` [compound 1, (7S)-7-Methyl-3-(2-methylpyridin-4-yl)-5-[4-(trifluoromethyl)phenyl]-6,7-dihydropyrazolo[1,5-a]pyrazin-4(5H)-one]: the “reserpine-induced blockade of the tail-pinch response” value is recorded as “did not affect”, the “scratching or hyperemia after reserpine” value was “did not induce” and the “tail-pinch response before reserpine” value was “did not affect”.
